Reference: US20160311882A1 (ELI LILLY AND COMPANY, priority 2013, published 2016)
Non-standard residues stand in square brackets, D forms with d. No end group written: not given here. Aib = CC(C)(N)C(=O)O

Test: general procedure: Fmoc solid-phase peptide synthesis; Fmoc-Rink amide polystyrene resin (Rapp Polymere), approximately 0.68 mmol/g; DIC/HOBt
Conditions: whole synthesis, 220 nm, scale 0.125 mmols, TFA salt converted to acetate salt

## YSQGTFTSDYSKYLD[Aib]KKAQEFVEWLLKTGPSSGAPPKSK-NH2
  final purity (method not given): >95%
